{
  "source": "paper PMC4682037",
  "about": "“Signal transduction in light–oxygen–voltage receptors lacking the adduct-forming cysteine residue” (Nature Communications, 2015)",
  "target": "FixJ (phosphorylated by YF1 variants in situ) (UniProt P23221)",
  "experiment": "EMSA",
  "conditions": "1 mM ATP, 10 mM HEPES pH 8.0 (200 mM for C62A variants, plus glucose oxidase/glucose/catalase), 80 mM KCl, 2.5 mM MgCl2, 0.1 mM EDTA, 100 ug/ml BSA, 10% glycerol, recombinant protein, residues 1-205, protein details: N-terminal His6 (not cleaved), label: 5'-TAMRA on forward strand",
  "note": "Negatives hold for the conditions tested. Construct, isoform or probe ends are uncertain for at least one entry. Weaker means in comparison with the reference protein, sequence or condition of that experiment.",
  "data": [
    {"sequence": "GAGCGATATCTTAAGGGGGGTGCCTTACGTAGAACCC (double strand) [FixK2 promoter DNA]", "values": [
      {"measurement": "binding result", "setting": "YF1 C62A, blue light, ROS scavenger, small portion in complex", "result": "binds more weakly"},
      {"measurement": "binding result", "setting": "YF1 C62A, dark, ROS scavenger", "result": "binds"},
      {"measurement": "binding result", "setting": "YF1 H22P, blue light", "result": "binds"},
      {"measurement": "binding result", "setting": "YF1 H22P, dark", "result": "no binding"},
      {"measurement": "binding result", "setting": "YF1 H22P:C62A, blue light, with ROS scavenger (catalase, glucose, glucose oxidase)", "result": "binds"},
      {"measurement": "binding result", "setting": "YF1 H22P:C62A, blue light, without ROS scavenger", "result": "no binding"},
      {"measurement": "binding result", "setting": "YF1 H22P:C62A, dark", "result": "no binding"},
      {"measurement": "binding result", "setting": "YF1 WT, blue light (FixJ dephosphorylated)", "result": "no binding"},
      {"measurement": "binding result", "setting": "YF1 WT, dark (phospho-FixJ)", "result": "binds"}
    ]}
  ]
}
